# Where “and” joins values, the source holds several entries; their conditions need not be identical. Equal values may be shown once. Where a name gives a salt, the structure may show the parent alone. ± gives the standard deviation of the averaged measurements. Some of the results follow. Baselines shift from plate to plate; read single values as rough.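 Assay uses culture-activated primary human stellate myofibroblasts; lipid droplet recovery indicates inactivation. Measured: proportion of Hoechst-counted cells over a plate-specific Bodipy cutoff, duplicate wells, DMSO and nortriptyline as per-plate negative and positive controls. A hit scores, control-normalized, above the plate's top-tenth-percentile nortriptyline wells or ranks among its three best wells. Final well concentrations not reported.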
# Tested on: primary human hepatic stellate cells (donor 1)
# Assay: percent Bodipy-positive cells; higher = more lipid droplet accumulation
# Details: 48 h
# [1] = library stock concentration: 10 mM
# [2] = library stock concentration: 3.33 mM
# [3] = library stock concentration: 80 uM
# [4] = library stock concentration: 400 uM
# [5] = library stock concentration: 2 mM
structure (smiles),measurement,setting,value
C=C[C@@]1(C)C[C@@H](OC(=O)CS[C@@H]2C[C@H]3CC[C@@H](C2)N3C)[C@@]2(C)[C@@H]3C(=O)CC[C@@]3(CC[C@@H]2C)[C@@H](C)[C@@H]1O [Retapamulin],percent Bodipy-positive cells,[1],93.8 ± 2.2%
CN(C1CCc2c(c3ccccc3n2CC(=O)O)C1)S(=O)(=O)c1ccc(F)cc1 (centres undefined),percent Bodipy-positive cells,library stock concentration: 1 mM,14.5 ± 0.19%
C[C@H](O)C(=O)Nc1c(I)c(C(=O)NC(CO)CO)c(I)c(C(=O)NC(CO)CO)c1I [Iopamidol],percent Bodipy-positive cells,,6.89 ± 1.7%
CC1Cc2ccccc2N1NC(=O)c1ccc(Cl)c(S(N)(=O)=O)c1 (centres undefined) [Indapamide],percent Bodipy-positive cells,,36.2 ± 15%
same,percent Bodipy-positive cells,[2],27 ± 21%
same,percent Bodipy-positive cells,[1],16.7% and 13.7%
CC1Cc2ccccc2N1NC(=O)c1ccc(Cl)c(S(N)(=O)=O)c1 (centres undefined),percent Bodipy-positive cells,[1],22.8 ± 5.8%
CC(C)(C)[C@]1(O)CCN2C[C@H]3c4ccccc4CCc4cccc(c43)[C@@H]2C1 [(+)-Butaclamol hydrochloride],percent Bodipy-positive cells,[1],93.3 ± 5.9%
CC(C)(C)[C@]1(O)CCN2C[C@H]3c4ccccc4CCc4cccc(c43)[C@@H]2C1,percent Bodipy-positive cells,[1],80.5 ± 4.4%
C[C@H]1O[C@@H](O[C@H]2[C@@H](O)C[C@H](O[C@H]3[C@@H](O)C[C@H](O[C@H]4CC[C@]5(C)C6C[C@@H](O)[C@]7(C)[C@@H](C8=CC(=O)OC8)CC[C@]7(O)C6CC[C@@H]5C4)O[C@@H]3C)O[C@@H]2C)C[C@H](O)[C@@H]1O (some centres undefined) [Digoxin],percent Bodipy-positive cells,library stock concentration: 2.6 mM,71.1 ± 14%
Nc1nc2[nH]c(=O)cnc2c(=O)[nH]1 [Isoxanthopterin],percent Bodipy-positive cells,[1],40.8 ± 11%
CCCS(=O)(=O)Nc1ccc(F)c(C(=O)c2c[nH]c3ncc(Cl)cc23)c1F,percent Bodipy-positive cells,[1],81.2 ± 1.2%
FC(F)(Cl)C(F)(F)Cl,percent Bodipy-positive cells,[1],23.2 ± 4.6%
COc1ccc(C2CC(c3c(O)cc(C)oc3=O)=NCCS2)c(OC)c1 (centres undefined),percent Bodipy-positive cells,[1],21.2 ± 1.9%
CCC(=O)c1c(O)cc(O)cc1O [Flopropione],percent Bodipy-positive cells,[2],8.07 ± 1.9%
same,percent Bodipy-positive cells,[1],25.3% and 16.9%
C=CC(=O)Nc1ccc2ncnc(Nc3cccc(Br)c3)c2c1,percent Bodipy-positive cells,[2],16.8 ± 4.6%
same,percent Bodipy-positive cells,[1],93.7 ± 1.5%
O=C(NCC(O)CO)c1c(I)c(C(=O)NCC(O)CO)c(I)c(N(CCO)C(=O)CO)c1I (centres undefined) [Ioversol],percent Bodipy-positive cells,,9.63 ± 1.9%
CO/N=C(\C(=O)N[C@@H]1C(=O)N2C(C(=O)O)=C(COC(N)=O)CS[C@H]12)c1ccco1 [Cefuroxime],percent Bodipy-positive cells,[1],32.5 ± 1.4%
CO/N=C(\C(=O)N[C@@H]1C(=O)N2C(C(=O)O)=C(COC(N)=O)CS[C@H]12)c1ccco1 [Cefuroxime sodium],percent Bodipy-positive cells,library stock concentration: 4.5 mM,7.66 ± 0.58%
same,percent Bodipy-positive cells,[1],23.1 ± 3.2%
CO/N=C(\C(=O)N[C@@H]1C(=O)N2C(C(=O)O)=C(COC(N)=O)CS[C@H]12)c1ccco1 [Cefuroxime sodium salt],percent Bodipy-positive cells,,9.33 ± 4.2%
CN1CCN(CCOc2cc(OC3CCOCC3)c3c(Nc4c(Cl)ccc5c4OCO5)ncnc3c2)CC1,percent Bodipy-positive cells,[3],24 ± 2.9%
same,percent Bodipy-positive cells,[4],38.7 ± 16%
same,percent Bodipy-positive cells,[5],56.1 ± 15%
same,percent Bodipy-positive cells,[1],81.7 ± 13%
CN1CCN(CCOc2cc(OC3CCOCC3)c3c(Nc4c(Cl)ccc5c4OCO5)ncnc3c2)CC1 [Saracatinib (AZD0530)],percent Bodipy-positive cells,[2],63.819 ± 0.037%
same,percent Bodipy-positive cells,[1],77 ± 2.4%
C[C@@H](N)c1ccc(C(=O)Nc2ccnc3[nH]ccc23)cc1,percent Bodipy-positive cells,[3],11.3 ± 3.5%
same,percent Bodipy-positive cells,[4],14.7 ± 2%
same,percent Bodipy-positive cells,[5],36.3 ± 16%
Nc1ccc(S(=O)(=O)Nc2ccnn2-c2ccccc2)cc1 [Sulfaphenazole],percent Bodipy-positive cells,,33.5 ± 7%
same,percent Bodipy-positive cells,[1],22.8% and 17.3%

# Nine neighbouring entries already listed, quoted:
structure (smiles),measurement,setting,value
C=CC(=O)Nc1ccc2ncnc(Nc3cccc(Br)c3)c2c1,percent Bodipy-positive cells,[1],93.7 ± 1.5%
O=C(NCC(O)CO)c1c(I)c(C(=O)NCC(O)CO)c(I)c(N(CCO)C(=O)CO)c1I (centres undefined) [Ioversol],percent Bodipy-positive cells,,9.63 ± 1.9%
CO/N=C(\C(=O)N[C@@H]1C(=O)N2C(C(=O)O)=C(COC(N)=O)CS[C@H]12)c1ccco1 [Cefuroxime],percent Bodipy-positive cells,[1],32.5 ± 1.4%
CO/N=C(\C(=O)N[C@@H]1C(=O)N2C(C(=O)O)=C(COC(N)=O)CS[C@H]12)c1ccco1 [Cefuroxime sodium],percent Bodipy-positive cells,library stock concentration: 4.5 mM,7.66 ± 0.58%
same,percent Bodipy-positive cells,[1],23.1 ± 3.2%
CO/N=C(\C(=O)N[C@@H]1C(=O)N2C(C(=O)O)=C(COC(N)=O)CS[C@H]12)c1ccco1 [Cefuroxime sodium salt],percent Bodipy-positive cells,,9.33 ± 4.2%
CN1CCN(CCOc2cc(OC3CCOCC3)c3c(Nc4c(Cl)ccc5c4OCO5)ncnc3c2)CC1,percent Bodipy-positive cells,[3],24 ± 2.9%
same,percent Bodipy-positive cells,[4],38.7 ± 16%
same,percent Bodipy-positive cells,[5],56.1 ± 15%
